Measurements reported in PubChem BioAssay AID743456 (Peter MacCallum Cancer Centre, 2014).

Purpose: 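miRNA mimics altering how resistant colon cancer cells respond to vorinostat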 (primary screen)
Cells: human HCT116-VR colon cancer cells, a vorinostat-resistant HCT116 line
Reagent: miRNA mimic
Duration: about 3 days from transfection to readout; drug present for the last 24 h
Treatment: vorinostat at 2.5 µM final for 24 h
Read-out: 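Cell viability from CellTiter-Fluor signal and caspase activity from luminescence after 24 h vorinostat at 2.5 µM, given as robust z-scores and as ratios to mock-transfected wells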
Reading the numbers: viability robust z-score and viability vs mock transfection: higher = more viable cells; caspase robust z-score: higher = more caspase activity, more apoptosis
Rule for the call: 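a mimic counts as active if it lands in a lowered-viability class or a caspase-activation class; wells with too few cells without drug are left out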
Shown is a random part of 878 reagents. 27 of them (3.1%) count as active. 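27 mimics are marked active, unlike an earlier stated count of 24; the viability threshold is described inconsistently.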 Not stated in the record: the amount of reagent.

miRNA,viability robust z-score,caspase robust z-score,viability hit class,caspase hit class,viability vs mock transfection,activity call
hsa-miR-412,-0.26,-0.25,no change,no change,0.74,inactive
hsa-miR-9,0.3,-0.42,no change,no change,0.84,inactive
hsa-miR-607,0.4,-0.74,no change,no change,0.86,inactive
hsa-miR-1250,-2.51,1.29,no change,no change,0.37,inactive
hsa-miR-548h,1.23,0.28,no change,no change,0.97,inactive
hsa-miR-136,0.62,-0.94,no change,no change,0.89,inactive
hsa-miR-628-3p,0.56,-0.66,no change,no change,0.85,inactive
hsa-miR-374b*,-0.53,0.31,no change,no change,0.65,inactive
hsa-miR-517*,1.69,-0.22,no change,no change,1.04,inactive
hsa-miR-23b*,0.48,0.41,no change,no change,0.86,inactive
hsa-miR-331-5p,0.02,0.51,no change,no change,0.8,inactive
hsa-miR-514,1.18,-0.15,no change,no change,0.96,inactive
hsa-miR-557,0.08,2.03,no change,no change,0.8,inactive
hsa-miR-302d*,0.51,0.32,no change,no change,0.88,inactive
hsa-miR-1262,-2.31,0.9,no change,no change,0.4,inactive
hsa-miR-34c-3p,0.05,-0.39,no change,no change,0.75,inactive
hsa-miR-612,0.09,-0.47,no change,no change,0.77,inactive
hsa-miR-519c-3p,0.88,2.67,no change,no change,0.94,inactive
hsa-miR-493,-2.1,4.54,no change,no change,0.44,inactive
hsa-miR-34a,-1.62,2.44,no change,no change,0.52,inactive
hsa-miR-563,-0.94,3.63,no change,no change,0.64,inactive
hsa-miR-559,1.11,-0.74,no change,no change,0.98,inactive
hsa-miR-590-5p,0.37,-0.66,no change,no change,0.84,inactive
hsa-miR-302c*,0.46,-0.36,no change,no change,0.84,inactive
hsa-miR-643,0.64,-0.77,no change,no change,0.86,inactive
hsa-miR-193b,-3.8,2.27,no change,no change,0.16,inactive
hsa-miR-300,0.2,-0.88,no change,no change,0.82,inactive
hsa-miR-29b,-0.5,-1.05,no change,no change,0.66,inactive
hsa-miR-639,1.06,-0.31,no change,no change,0.94,inactive
hsa-miR-487b,-1.48,-0.82,no change,no change,0.54,inactive
hsa-miR-483-5p,-0.36,3.25,no change,no change,0.74,inactive
hsa-miR-624*,-0.32,-0.78,no change,no change,0.76,inactive
hsa-miR-374a*,0.83,-0.52,no change,no change,0.93,inactive
hsa-miR-380,0.96,-0.44,no change,no change,0.94,inactive
hsa-miR-1245,0.64,1.14,no change,no change,0.86,inactive
hsa-miR-1272,-2.15,-0.96,no change,no change,0.46,inactive
hsa-miR-708,-2.85,2.1,no change,no change,0.32,inactive
hsa-miR-154*,0.84,-0.82,no change,no change,0.93,inactive
hsa-miR-653,-0.26,-0.09,no change,no change,0.75,inactive
hsa-miR-597,0.36,0.12,no change,no change,0.8,inactive
hsa-miR-299-3p,-0.42,0.8,no change,no change,0.72,inactive
hsa-miR-16,-2.86,1.5,no change,no change,0.36,inactive
hsa-miR-33a*,0.85,-0.64,no change,no change,0.9,inactive
hsa-miR-330-3p,-0.04,-0.42,no change,no change,0.79,inactive
hsa-miR-409-5p,0.33,4.42,no change,no change,0.84,inactive
hsa-miR-502-3p,-1.15,0.32,no change,no change,0.54,inactive
hsa-miR-513b,0.07,-0.6,no change,no change,0.76,inactive
hsa-miR-1234,0.44,-0.68,no change,no change,0.87,inactive
hsa-miR-30d,1.19,-0.51,no change,no change,0.96,inactive
hsa-miR-21*,0.84,-0.22,no change,no change,0.9,inactive
hsa-miR-425,-0.01,-0.62,no change,no change,0.79,inactive
hsa-miR-153,-0.66,4.27,no change,no change,0.68,inactive
hsa-miR-548i,0.7,-0.6,no change,no change,0.87,inactive
hsa-miR-518d-3p,0.4,-0.1,no change,no change,0.86,inactive
hsa-miR-497,-2.2,2.16,no change,no change,0.36,inactive
hsa-miR-593,-1.69,1.86,no change,no change,0.5,inactive
hsa-miR-1228*,0.2,-0.22,no change,no change,0.82,inactive
hsa-miR-490-5p,-0.18,-0.84,no change,no change,0.72,inactive
hsa-miR-501-3p,2.02,-0.26,no change,no change,1.11,inactive
hsa-miR-193a-5p,1,0.86,no change,no change,0.94,inactive
hsa-miR-411,-0.48,-0.63,no change,no change,0.71,inactive
hsa-miR-1203,0.72,-0.57,no change,no change,0.88,inactive
hsa-miR-574-3p,1.21,-0.6,no change,no change,0.96,inactive
